Construct, isoform or probe ends are uncertain for at least one entry. At least one verdict was read from the data and is not stated in words by the source. Where a protein sequence is shown, tags need not be part of it.
Target: T1, GmFDL19 (Glycine max) (UniProt I1N8K2)
T1 sequence (looked up, limits assumed): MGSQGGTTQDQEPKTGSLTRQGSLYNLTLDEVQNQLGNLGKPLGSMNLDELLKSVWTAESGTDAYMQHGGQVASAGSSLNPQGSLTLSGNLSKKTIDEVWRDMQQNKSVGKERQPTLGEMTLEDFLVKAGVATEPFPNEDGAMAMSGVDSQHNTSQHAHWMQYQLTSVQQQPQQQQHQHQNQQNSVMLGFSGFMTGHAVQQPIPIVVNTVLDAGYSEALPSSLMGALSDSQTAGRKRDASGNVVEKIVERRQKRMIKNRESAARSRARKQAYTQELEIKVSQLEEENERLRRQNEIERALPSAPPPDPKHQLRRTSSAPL
Test: EMSA
Settings: Invitrogen EMSA kit E33075, 6% native TBE polyacrylamide gel, 200 V 45 min, SYBR Green stain; binding buffer, pH and temperature not stated; recombinant …; protein details: His (pET29b, NdeI/SalI); label: none (SYBR Green stain)

Binding result, binds:
AACACCTCCTACGTCCATGATATTGCAGCGACCTAAAAAA (double strand) [GmAP1aP-911 A/C box]
GGCGCCGTCAACGTAAGGATGCACGTAATGTTCTGGTTCA (double strand) [GmAP1aP-2483 G/A box]
CGCGTGTACGCGTACCACGTATCCCAATTCCATAAGAAAT (double strand) [GmAP1aP-1876 G/A box]
GACCTAAAAAACAAACGTCGGAAGACGAACTTGTAGAAAG (double strand) [GmAP1aP-944 T/C box]
CCAAAAAATCAAACGTTTAGGTAAAAACCCAAATGATCTA (double strand) [GmAP1aP-732 T-box]
TCGTGGGTCGTGGCGCCGTCAACGTAAGGATGCACGTAAT (double strand) [GmAP1aP-2471 T/A box]
GATCGACAGCGCAACGTTAAGAAAACTACCCCGGTTTTTC (double strand) [GmAP1aP-2703 T-box]
